Data published in paper PMC12748351, “The TDG protein environment connects active DNA demethylation with chromatin and RNA biology”.

Amino acid sequences for entries named in this document (tags omitted). A change or cut given only in a name is not applied to a line headed by its entry.
UniProt P56581: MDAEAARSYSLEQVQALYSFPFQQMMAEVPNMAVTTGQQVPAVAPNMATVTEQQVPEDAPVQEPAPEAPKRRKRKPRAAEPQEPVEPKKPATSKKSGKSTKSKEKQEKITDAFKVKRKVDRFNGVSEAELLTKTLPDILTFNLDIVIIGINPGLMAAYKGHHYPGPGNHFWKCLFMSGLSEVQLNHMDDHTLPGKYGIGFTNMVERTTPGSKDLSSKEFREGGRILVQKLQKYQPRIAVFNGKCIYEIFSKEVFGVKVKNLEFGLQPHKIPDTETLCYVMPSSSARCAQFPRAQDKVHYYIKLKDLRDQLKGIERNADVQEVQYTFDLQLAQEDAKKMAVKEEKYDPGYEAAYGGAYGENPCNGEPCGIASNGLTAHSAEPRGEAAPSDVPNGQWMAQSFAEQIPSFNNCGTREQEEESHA
UniProt P60122: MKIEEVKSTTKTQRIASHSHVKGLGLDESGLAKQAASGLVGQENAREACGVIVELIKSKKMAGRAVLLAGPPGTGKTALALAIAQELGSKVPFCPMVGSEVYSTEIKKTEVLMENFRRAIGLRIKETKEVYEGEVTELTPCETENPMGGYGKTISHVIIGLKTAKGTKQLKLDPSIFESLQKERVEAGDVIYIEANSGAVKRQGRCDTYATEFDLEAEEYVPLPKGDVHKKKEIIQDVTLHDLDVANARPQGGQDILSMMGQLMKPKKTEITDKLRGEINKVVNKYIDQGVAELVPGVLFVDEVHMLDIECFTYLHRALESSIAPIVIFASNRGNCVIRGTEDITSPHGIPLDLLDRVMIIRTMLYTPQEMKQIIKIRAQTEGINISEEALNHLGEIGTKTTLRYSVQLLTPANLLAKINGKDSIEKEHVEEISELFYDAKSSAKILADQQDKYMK
UniProt Q96L73: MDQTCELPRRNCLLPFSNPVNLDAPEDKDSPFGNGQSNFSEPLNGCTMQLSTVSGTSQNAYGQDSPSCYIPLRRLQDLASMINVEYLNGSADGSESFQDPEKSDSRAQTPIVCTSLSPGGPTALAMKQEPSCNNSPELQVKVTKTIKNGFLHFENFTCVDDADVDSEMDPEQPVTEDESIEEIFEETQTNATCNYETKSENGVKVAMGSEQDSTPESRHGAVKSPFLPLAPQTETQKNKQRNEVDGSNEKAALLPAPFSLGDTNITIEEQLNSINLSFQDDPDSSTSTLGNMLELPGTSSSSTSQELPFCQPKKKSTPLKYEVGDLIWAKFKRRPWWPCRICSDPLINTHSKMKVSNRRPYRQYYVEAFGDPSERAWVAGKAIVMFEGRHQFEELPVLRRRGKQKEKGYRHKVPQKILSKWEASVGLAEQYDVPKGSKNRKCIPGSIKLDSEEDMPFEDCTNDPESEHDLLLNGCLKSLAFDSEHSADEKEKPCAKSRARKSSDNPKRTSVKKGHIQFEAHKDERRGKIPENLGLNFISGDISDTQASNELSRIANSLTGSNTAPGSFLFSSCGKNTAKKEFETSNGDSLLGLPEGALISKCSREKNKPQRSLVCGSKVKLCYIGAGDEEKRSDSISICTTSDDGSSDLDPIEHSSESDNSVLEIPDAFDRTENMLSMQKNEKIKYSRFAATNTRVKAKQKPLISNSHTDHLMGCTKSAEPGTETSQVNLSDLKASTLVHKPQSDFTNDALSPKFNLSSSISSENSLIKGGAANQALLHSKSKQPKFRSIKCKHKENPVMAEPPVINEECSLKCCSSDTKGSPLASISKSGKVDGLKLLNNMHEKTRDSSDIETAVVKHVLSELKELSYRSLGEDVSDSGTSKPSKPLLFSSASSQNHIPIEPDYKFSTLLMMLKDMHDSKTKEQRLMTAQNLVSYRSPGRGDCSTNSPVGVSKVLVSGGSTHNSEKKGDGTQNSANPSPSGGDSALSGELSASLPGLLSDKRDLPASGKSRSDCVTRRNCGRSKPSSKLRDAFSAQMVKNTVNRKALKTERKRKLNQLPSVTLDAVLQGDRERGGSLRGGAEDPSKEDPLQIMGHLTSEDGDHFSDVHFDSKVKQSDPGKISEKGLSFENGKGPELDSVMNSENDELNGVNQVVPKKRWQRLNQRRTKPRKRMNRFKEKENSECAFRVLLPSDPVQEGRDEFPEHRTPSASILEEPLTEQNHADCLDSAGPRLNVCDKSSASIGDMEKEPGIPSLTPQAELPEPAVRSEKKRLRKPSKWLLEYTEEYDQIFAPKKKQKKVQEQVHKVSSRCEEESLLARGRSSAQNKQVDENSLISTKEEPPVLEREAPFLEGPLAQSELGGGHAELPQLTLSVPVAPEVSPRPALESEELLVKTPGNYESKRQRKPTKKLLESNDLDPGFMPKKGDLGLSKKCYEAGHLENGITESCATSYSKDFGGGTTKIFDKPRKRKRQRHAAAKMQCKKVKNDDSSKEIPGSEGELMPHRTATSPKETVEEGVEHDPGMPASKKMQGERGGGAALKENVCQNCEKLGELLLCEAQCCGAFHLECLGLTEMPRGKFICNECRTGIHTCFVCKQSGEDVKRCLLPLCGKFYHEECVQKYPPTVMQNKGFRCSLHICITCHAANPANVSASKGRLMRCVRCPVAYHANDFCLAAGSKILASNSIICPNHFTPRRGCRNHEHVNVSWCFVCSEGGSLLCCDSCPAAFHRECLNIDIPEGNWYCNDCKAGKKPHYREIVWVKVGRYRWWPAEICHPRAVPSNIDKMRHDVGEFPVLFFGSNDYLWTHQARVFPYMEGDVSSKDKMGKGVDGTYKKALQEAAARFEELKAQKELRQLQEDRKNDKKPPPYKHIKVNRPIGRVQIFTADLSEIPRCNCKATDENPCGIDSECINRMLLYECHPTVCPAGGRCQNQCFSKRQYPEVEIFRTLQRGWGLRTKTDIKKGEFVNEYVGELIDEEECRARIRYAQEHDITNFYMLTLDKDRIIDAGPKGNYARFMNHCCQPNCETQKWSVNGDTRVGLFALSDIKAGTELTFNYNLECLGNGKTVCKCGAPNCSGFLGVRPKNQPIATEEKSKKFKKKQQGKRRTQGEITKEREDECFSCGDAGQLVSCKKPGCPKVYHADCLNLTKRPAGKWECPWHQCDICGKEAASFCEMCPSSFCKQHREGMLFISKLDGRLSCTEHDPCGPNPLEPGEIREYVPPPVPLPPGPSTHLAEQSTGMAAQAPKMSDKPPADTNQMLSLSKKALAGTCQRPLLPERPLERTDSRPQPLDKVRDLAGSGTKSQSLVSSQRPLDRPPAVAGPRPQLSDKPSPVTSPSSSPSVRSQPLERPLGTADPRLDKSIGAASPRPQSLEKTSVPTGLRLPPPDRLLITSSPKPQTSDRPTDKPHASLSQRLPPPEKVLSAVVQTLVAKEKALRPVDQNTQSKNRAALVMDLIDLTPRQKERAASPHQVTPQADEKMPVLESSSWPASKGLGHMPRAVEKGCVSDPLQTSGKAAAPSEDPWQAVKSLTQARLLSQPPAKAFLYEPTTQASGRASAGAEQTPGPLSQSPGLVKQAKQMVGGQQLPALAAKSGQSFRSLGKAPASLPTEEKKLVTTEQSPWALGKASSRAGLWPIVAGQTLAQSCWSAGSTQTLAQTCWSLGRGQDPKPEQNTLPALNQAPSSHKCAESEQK
UniProt Q06323: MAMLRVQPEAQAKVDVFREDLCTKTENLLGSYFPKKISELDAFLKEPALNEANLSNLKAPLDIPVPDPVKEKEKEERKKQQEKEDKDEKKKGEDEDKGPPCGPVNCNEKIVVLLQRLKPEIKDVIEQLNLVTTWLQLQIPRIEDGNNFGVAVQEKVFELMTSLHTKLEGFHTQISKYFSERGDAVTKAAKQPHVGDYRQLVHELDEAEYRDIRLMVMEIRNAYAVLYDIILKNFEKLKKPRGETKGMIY
UniProt P28070: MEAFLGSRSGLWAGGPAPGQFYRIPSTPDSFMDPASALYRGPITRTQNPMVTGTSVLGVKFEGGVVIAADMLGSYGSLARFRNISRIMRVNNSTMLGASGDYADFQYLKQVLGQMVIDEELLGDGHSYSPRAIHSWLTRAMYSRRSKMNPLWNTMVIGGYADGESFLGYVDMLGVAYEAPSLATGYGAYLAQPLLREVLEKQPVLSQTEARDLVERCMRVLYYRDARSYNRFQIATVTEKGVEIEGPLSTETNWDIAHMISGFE
UniProt P35637: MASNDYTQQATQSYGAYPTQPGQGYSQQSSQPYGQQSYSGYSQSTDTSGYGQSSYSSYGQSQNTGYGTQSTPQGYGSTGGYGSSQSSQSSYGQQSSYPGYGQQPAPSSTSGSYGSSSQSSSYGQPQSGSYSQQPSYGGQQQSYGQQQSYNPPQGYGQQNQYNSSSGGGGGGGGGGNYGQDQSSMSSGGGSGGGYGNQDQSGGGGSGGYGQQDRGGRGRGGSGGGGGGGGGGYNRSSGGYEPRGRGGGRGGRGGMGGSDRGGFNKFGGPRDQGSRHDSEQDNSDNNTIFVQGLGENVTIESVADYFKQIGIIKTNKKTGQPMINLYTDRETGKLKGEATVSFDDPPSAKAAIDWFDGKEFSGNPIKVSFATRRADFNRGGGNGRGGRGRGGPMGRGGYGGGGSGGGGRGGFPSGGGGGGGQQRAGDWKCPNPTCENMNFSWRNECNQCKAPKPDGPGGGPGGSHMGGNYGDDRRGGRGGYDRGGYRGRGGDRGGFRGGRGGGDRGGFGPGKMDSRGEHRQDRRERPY
UniProt Q9H0E9: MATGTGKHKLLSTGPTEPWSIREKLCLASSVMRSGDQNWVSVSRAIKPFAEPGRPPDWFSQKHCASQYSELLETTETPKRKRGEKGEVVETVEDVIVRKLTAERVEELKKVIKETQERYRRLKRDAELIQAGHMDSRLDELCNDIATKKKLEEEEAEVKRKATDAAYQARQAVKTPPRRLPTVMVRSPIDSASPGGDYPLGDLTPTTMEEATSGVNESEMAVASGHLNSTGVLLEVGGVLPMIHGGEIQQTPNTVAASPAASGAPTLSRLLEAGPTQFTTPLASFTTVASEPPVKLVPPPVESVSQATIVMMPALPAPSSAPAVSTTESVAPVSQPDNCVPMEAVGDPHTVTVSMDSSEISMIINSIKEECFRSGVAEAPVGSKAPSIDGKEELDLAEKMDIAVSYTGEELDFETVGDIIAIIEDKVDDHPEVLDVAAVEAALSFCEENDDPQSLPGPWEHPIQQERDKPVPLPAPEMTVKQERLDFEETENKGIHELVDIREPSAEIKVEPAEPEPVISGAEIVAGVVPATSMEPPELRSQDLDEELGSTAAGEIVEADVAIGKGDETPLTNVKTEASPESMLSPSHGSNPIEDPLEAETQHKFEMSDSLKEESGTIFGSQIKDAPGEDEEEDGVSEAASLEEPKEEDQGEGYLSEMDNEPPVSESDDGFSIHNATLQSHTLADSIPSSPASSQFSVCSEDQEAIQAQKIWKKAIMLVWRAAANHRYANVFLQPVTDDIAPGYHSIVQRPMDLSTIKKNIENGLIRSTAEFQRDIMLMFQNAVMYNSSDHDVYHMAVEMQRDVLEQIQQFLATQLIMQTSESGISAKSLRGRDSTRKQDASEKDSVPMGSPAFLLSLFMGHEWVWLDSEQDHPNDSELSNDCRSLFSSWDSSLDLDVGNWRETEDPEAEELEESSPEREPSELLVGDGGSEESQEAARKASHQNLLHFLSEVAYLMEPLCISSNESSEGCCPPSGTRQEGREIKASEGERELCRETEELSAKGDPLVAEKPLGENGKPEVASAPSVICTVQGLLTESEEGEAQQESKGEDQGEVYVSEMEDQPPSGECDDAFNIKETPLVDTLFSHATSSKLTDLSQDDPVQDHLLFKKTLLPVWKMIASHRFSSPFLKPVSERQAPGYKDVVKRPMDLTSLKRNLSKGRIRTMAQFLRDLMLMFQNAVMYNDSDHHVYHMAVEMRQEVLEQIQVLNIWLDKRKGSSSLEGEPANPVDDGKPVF
UniProt P09405: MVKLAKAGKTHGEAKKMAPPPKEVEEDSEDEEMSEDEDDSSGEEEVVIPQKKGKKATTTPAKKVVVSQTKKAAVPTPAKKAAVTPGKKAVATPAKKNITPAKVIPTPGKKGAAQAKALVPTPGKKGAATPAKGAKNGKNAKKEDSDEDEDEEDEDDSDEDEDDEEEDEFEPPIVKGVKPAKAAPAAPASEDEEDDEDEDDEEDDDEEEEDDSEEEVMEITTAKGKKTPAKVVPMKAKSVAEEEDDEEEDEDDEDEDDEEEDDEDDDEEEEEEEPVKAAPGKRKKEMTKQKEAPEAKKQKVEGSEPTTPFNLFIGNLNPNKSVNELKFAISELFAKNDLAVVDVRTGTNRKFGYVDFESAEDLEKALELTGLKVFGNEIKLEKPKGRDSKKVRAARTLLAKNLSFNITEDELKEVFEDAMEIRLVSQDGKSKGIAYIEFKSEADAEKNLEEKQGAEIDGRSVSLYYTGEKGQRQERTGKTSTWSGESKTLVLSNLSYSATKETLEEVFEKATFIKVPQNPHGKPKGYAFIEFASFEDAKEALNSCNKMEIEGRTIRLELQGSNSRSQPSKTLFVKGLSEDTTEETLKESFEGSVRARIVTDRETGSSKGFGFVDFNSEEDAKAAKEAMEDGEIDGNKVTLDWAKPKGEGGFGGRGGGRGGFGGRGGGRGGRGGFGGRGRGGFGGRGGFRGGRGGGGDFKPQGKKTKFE

B1: NONO (protein, UniProt Q99K48 1-473)
chain: MQSNKAFNLEKQNHTPRKHHQHHHQQHHQQQQQQQQQQPPPPIPANGQQASSQNEGLTIDLKNFRKPGEKTFTQRSRLFVGNLPPDITEEEMRKLFEKYGKAGEVFIHKDKGFGFIRLETRTLAEIAKVELDNMPLRGKQLRVRFACHSASLTVRNLPQYVSNELLEEAFSVFGQVERAVVIVDDRGRPSGKGIVEFSGKPAARKALDRCSEGSFLLTTFPRPVTVEPMDQLDDEEGLPEKLVIKNQQFHKEREQPPRFAQPGSFEYEYAMRWKALIEMEKQQQDQVDRNIKEAREKLEMEMEAARHEHQVMLMRQDLMRRQEELRRMEELHNQEVQKRKQLELRQEEERRRREEEMRRQQEEMMRRQQEGFKGTFPDAREQEIRMGQMAMGGAMGINNRGAMPPAPVPPGTPAPPGPATMMPDGTLGLTPPTTERFGQAATMEGIGAIGGTPPAFNRPAPGAEFAPNKRRRY
B2: DDX21 (enzyme, UniProt Q9JIK5 1-851)
chain: MPGKLRSGAKLGSDGAEESMETLPKPSEKKTRKEKTKSKTEEATEGMEEAVSSKAKKTNKKGPSEDDVDPPKSRKAKKQEEEPQDDTASTSKTSKKKKEPLEKQADSETKEIITEEPSEEEADMPKPKKMKKGKEANGDAGEKSPKLKNGLSQPSEEEADIPKPKKMKKGKEANGDAGEKSPKLKNGLSQPSEEEVDIPKPKKMKKGKEASGDAGEKSPRLKDGLSQPSEPKSNSSDAPGEESSSETEKEIPVEQKEGAFSNFPISEETVKLLKARGVNFLFPIQAKTFHHVYSGKDLIAQARTGTGKTFSFAIPLIEKLQGGLQERKRGRAPQVLVLAPTRELANQVSKDFSDITKKLSVACFYGGTPYGGQIERMRSGIDILVGTPGRIKDHLQNGKLDLTKLKHVVLDEVDQMLDMGFADQVEEILCVAYKKDSEDNPQTLLFSATCPHWVFNVAKKYMKSTYEQVDLIGKKTQKAAITVEHLAIKCHWTERAAVIGDVIRVYSGHQGRTIIFCETKKDAQELSQNTCIKQDAQSLHGDIPQKQREITLKGFRNGNFGVLVATNVAARGLDIPEVDLVVQSCPPKDVESYIHRSGRTGRAGRTGVCICFYQNKEEYQLAQVEQKAGIKFKRIGVPSATEIIKASSKDAIRLLDSVPPTAISHFKQSAEKLIEEKGAVEALAAALAHISGATSVDQRSLINSQAGFVTMILRCSIEMPNISYAWKELKEQLGESIDAKVKGMVFLKGKLGVCFDVRTEAVTEIQEKWHDSRRWQLTVATEQPELEGPPDGYRGRMGQRDGSRGAFRGQRGGSRNFRGQGQRGGSRNFRGQRPGGGNRGQKRSFSKAFGQ
B3: ASS1 (enzyme, UniProt P00966 1-412)
chain: MSSKGSVVLAYSGGLDTSCILVWLKEQGYDVIAYLANIGQKEDFEEARKKALKLGAKKVFIEDVSREFVEEFIWPAIQSSALYEDRYLLGTSLARPCIARKQVEIAQREGAKYVSHGATGKGNDQVRFELSCYSLAPQIKVIAPWRMPEFYNRFKGRNDLMEYAKQHGIPIPVTPKNPWSMDENLMHISYEAGILENPKNQAPPGLYTKTQDPAKAPNTPDILEIEFKKGVPVKVTNVKDGTTHQTSLELFMYLNEVAGKHGVGRIDIVENRFIGMKSRGIYETPAGTILYHAHLDIEAFTMDREVRKIKQGLGLKFAELVYTGFWHSPECEFVRHCIAKSQERVEGKVQVSVLKGQVYILGRESPLSLYNEELVSMNVQGDYEPTDATGFININSLRLKEYHRLQSKVTAK
B4: ARID3A (protein, UniProt Q99856 1-593)
chain: MKLQAVMETLLQRQQRARQELEARQQLPPDPPAAPPGRARAAPDEDREPESARMQRAQMAALAAMRAAAAGLGHPASPGGSEDGPPGSEEEDAAREGTPGSPGRGREGPGEEHFEDMASDEDMKPKWEEEEMEEDLGEDEEEEEEDYEDEEEEEDEEGLGPPGPASLGTTALFPRKAQPPQAFRGDGVPRVLGGQERPGPGPAHPGGAAHVAPQLQPPDHGDWTYEEQFKQLYELDGDPKRKEFLDDLFSFMQKRGTPVNRIPIMAKQVLDLFMLYVLVTEKGGLVEVINKKLWREITKGLNLPTSITSAAFTLRTQYMKYLYPYECEKRGLSNPNELQAAIDSNRREGRRQSFGGSLFAYSPGGAHGMLSSPKLPVSSLGLAASTNGSSITPAPKIKKEEDSAIPITVPGRLPVSLAGHPVVAAQAAAVQAAAAQAAVAAQAAALEQLREKLESAEPPEKKMALVADEQQRLMQRALQQNFLAMAAQLPMSIRINSQASESRQDSAVNLTGTNGSNSISMSVEINGIMYTGVLFAQPPAPTPTSAPNKGGGGGGGSSSNAGGRGGNTGTSGGQAGPAGLSTPSTSTSNNSLP
B5: ZMYM2 (protein, UniProt Q9UBW7 1-1377)
chain: MDTSSVGGLELTDQTPVLLGSTAMATSLTNVGNSFSGPANPLVSRSNKFQNSSVEDDDDVVFIEPVQPPPPSVPVVADQRTITFTSSKNEELQGNDSKITPSSKELASQKGSVSETIVIDDEEDMETNQGQEKNSSNFIERRPPETKNRTNDVDFSTSSFSRSKVNAGMGNSGITTEPDSEIQIANVTTLETGVSSVNDGQLENTDGRDMNLMITHVTSLQNTNLGDVSNGLQSSNFGVNIQTYTPSLTSQTKTGVGPFNPGRMNVAGDVFQNGESATHHNPDSWISQSASFPRNQKQPGVDSLSPVASLPKQIFQPSVQQQPTKPVKVTCANCKKPLQKGQTAYQRKGSAHLFCSTTCLSSFSHKPAPKKLCVMCKKDITTMKGTIVAQVDSSESFQEFCSTSCLSLYEDKQNPTKGALNKSRCTICGKLTEIRHEVSFKNMTHKLCSDHCFNRYRMANGLIMNCCEQCGEYLPSKGAGNNVLVIDGQQKRFCCQSCVSEYKQVGSHPSFLKEVRDHMQDSFLMQPEKYGKLTTCTGCRTQCRFFDMTQCIGPNGYMEPYCSTACMNSHKTKYAKSQSLGIICHFCKRNSLPQYQATMPDGKLYNFCNSSCVAKFQALSMQSSPNGQFVAPSDIQLKCNYCKNSFCSKPEILEWENKVHQFCSKTCSDDYKKLHCIVTYCEYCQEEKTLHETVNFSGVKRPFCSEGCKLLYKQDFARRLGLRCVTCNYCSQLCKKGATKELDGVVRDFCSEDCCKKFQDWYYKAARCDCCKSQGTLKERVQWRGEMKHFCDQHCLLRFYCQQNEPNMTTQKGPENLHYDQGCQTSRTKMTGSAPPPSPTPNKEMKNKAVLCKPLTMTKATYCKPHMQTKSCQTDDTWRTEYVPVPIPVPVYIPVPMHMYSQNIPVPTTVPVPVPVPVFLPAPLDSSEKIPAAIEELKSKVSSDALDTELLTMTDMMSEDEGKTETTNINSVIIETDIIGSDLLKNSDPETQSSMPDVPYEPDLDIEIDFPRAAEELDMENEFLLPPVFGEEYEEQPRPRSKKKGAKRKAVSGYQSHDDSSDNSECSFPFKYTYGVNAWKHWVKTRQLDEDLLVLDELKSSKSVKLKEDLLSHTTAELNYGLAHFVNEIRRPNGENYAPDSIYYLCLGIQEYLCGSNRKDNIFIDPGYQTFEQELNKILRSWQPSILPDGSIFSRVEEDYLWRIKQLGSHSPVALLNTLFYFNTKYFGLKTVEQHLRLSFGTVFRHWKKNPLTMENKACLRYQVSSLCGTDNEDKITTGKRKHEDDEPVFEQIENTANPSRCPVKMFECYLSKSPQNLNQRMDVFYLQPECSSSTDSPVWYTSTSLDRNTLENMLVRVLLVKDIYDKDNYELDEDTD
B6: RBM17 (protein, UniProt Q96I25 1-401)
chain: MSLYDDLGVETSDSKTEGWSKNFKLLQSQLQVKKAALTQAKSQRTKQSTVLAPVIDLKRGGSSDDRQIVDTPPHVAAGLKDPVPSGFSAGEVLIPLADEYDPMFPNDYEKVVKRQREERQRQRELERQKEIEEREKRRKDRHEASGFARRPDPDSDEDEDYERERRKRSMGGAAIAPPTSLVEKDKELPRDFPYEEDSRPRSQSSKAAIPPPVYEEQDRPRSPTGPSNSFLANMGGTVAHKIMQKYGFREGQGLGKHEQGLSTALSVEKTSKRGGKIIVGDATEKDASKKSDSNPLTEILKCPTKVVLLRNMVGAGEVDEDLEVETKEECEKYGKVGKCVIFEIPGAPDDEAVRIFLEFERVESAIKAVVDLNGRYFGGRVVKACFYNLDKFRVLDLAEQV

These molecules were tested against TDG-BirA* fusion protein, HA-tagged (pPgk-mTDGa-BioID2-HA), stably expressed in mESC (murine) (UniProt P56581) (assay: proximity labelling; BioID2-MS in mESC stably expressing TDG-BirA*; nuclear fraction; approach A or B is not told for these hits).
For “RUVBL2 (endogenous in mESC) (from UniProt Q9WTM5 1-463)”, the binding was “binds”.
“RUVBL1 (endogenous in mESC) (from UniProt P60122 1-456)” was tested, and the binding was “binds”.
For SMARCA4 (from UniProt Q3TKT4 1-1613), the binding was “binds”.

Molecular target: TDG-BirA* fusion protein, HA-tagged (pPgk-mTDGa-BioID2-HA), stably expressed in mESC (murine) (UniProt P56581)
Assay: as above
Remark: another data set of the same source
In the case of B1, the binding is reported as “binds”.
In the case of B2, the binding is reported as “binds”.

These molecules were tested against TDG-BirA* fusion protein, HA-tagged (pCMV-mTDGa-BioID2-HA), expressed in HEK293T (murine) (UniProt P56581) (assay: proximity labelling; BioID2-MS in Tdg-/- HEK293T transiently expressing TDG-BirA*; 50 µM biotin for 24 h; whole-cell lysis in 8 M urea, streptavidin beads, LC-MS; enriched over NLS-BirA*, H4-BirA*, no BirA* and no biotin controls (log2FC > 1, q-value < 0.1)).
With TAF9 (from UniProt Q16594 1-264) the binding was “binds”.
In the case of “NSD1 (endogenous in HEK293T) (from UniProt Q96L73 1-2696) (enzyme)”, the binding is reported as “binds”.
In the case of PSME1 (from UniProt Q06323 1-249), the binding is reported as “binds”.
In the case of TAF4 (from UniProt O00268 1-1085), the binding is reported as “binds”.
PSMB4 (from UniProt P28070) was tested, and the binding was “binds”.
In the case of PSME2 (from UniProt Q9UL46 1-239), the binding is reported as “binds”.
With “EHMT2 (from UniProt Q96KQ7 1-1210) (enzyme)” the binding was “binds”.
For FUS (from UniProt P35637 1-526), the binding was “binds”.
For BRD8 (from UniProt Q9H0E9 1-1235), the binding was “binds”.
With B3 the binding was “binds”.
With B4 the binding was “binds”.
In the case of B5, the binding is reported as “binds”.
B6 was tested, and the binding was “binds”.

Each molecule was assayed against TDG-BirA* fusion protein, HA-tagged (pPgk-mTDGa-BioID2-HA), stably expressed in mESC (murine) (UniProt P56581) (assay: proximity labelling; BioID2-MS in mESC stably expressing TDG-BirA*; 60 µM biotin for 48 h; nuclear fraction; approach A: lysis and streptavidin purification in denaturing urea buffers; enriched over NLS-BirA* and no-BirA* (nucleolar proteins: over no-BirA* only)).
With SMCHD1 (from UniProt Q6P5D8 1-2007) the binding was “binds”.
With “NSD1 (endogenous in mESC) (from UniProt O88491 1-2588) (enzyme)” the binding was “binds”.
“AP-endonuclease 1 (from UniProt P28352 1-317) (enzyme)” was tested, and the binding was “binds”.
NCL (from UniProt P09405 1-707) was tested, and the binding was “binds”.

Each molecule was assayed against TDG-BirA* fusion protein, HA-tagged (pPgk-mTDGa-BioID2-HA), stably expressed in mESC (murine) (UniProt P56581) (assay: proximity labelling; BioID2-MS in mESC stably expressing TDG-BirA*; 60 µM biotin for 48 h; nuclear fraction; approach B: high-salt extraction with Benzonase, streptavidin beads washed with SDS and high-salt buffers; enriched over NLS-BirA* and no-BirA* (nucleolar proteins: over no-BirA* only)).
For SMCHD1 (from UniProt Q6P5D8 1-2007), the binding was “binds”.
In the case of “NSD1 (endogenous in mESC) (from UniProt O88491 1-2588) (enzyme)”, the binding is reported as “binds”.
For NCL (from UniProt P09405 1-707), the binding was “binds”.
In the case of “TET1 (from UniProt Q3URK3 1-2039) (enzyme)”, the binding is reported as “binds”.

These are yes or no findings as the source states them, for the method shown. Binding seen in cells or lysates may run through a third protein. These calls come from enrichment with a bait or labelling near it, and not all partners need be listed.
